PubChem BioAssay AID1259308, NCATS, 2017
Assay: 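Genes whose loss raises luciferase production in HEK293 cells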 (primary screen). System: human HEK293 embryonic kidney cells stably expressing firefly luciferase (HEK-CMV-Luc2-Hygro). Reagents: single siRNA against human genes, 0.8 pmol siRNA per well. Duration: 72 h. Measurement: 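Luciferase light (ONE-Glo) measured on one replicate plate set and viability (CellTiter-Glo) on the other, scaled to a negative control siRNA, with robust z-scores and luciferase per cell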. Scale: total luciferase, z-score: higher = more reporter protein produced. Call rule: 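Active when the median/MAD z-score for overall luciferase is greater than 3; a gene was taken forward for validation with new siRNAs if at least two of its three siRNAs passed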. Calls: active = raised luciferase; inactive = no rise.
The whole screen tested about 59,000 reagents; this is an unselected part. Of all reagents, about 1,510 (2.6%) got an active call. 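Calls use total luciferase alone and ignore viability, so some active siRNAs may act by altering cell number.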 Reagents against one gene are numbered here. Further read-outs or replicates are left out here.

FLYWCH1 (GeneID 84256) #1 | total luciferase, z-score: 0.025; Call: inactive
FLYWCH1 (GeneID 84256) #2 | total luciferase, z-score: 5.6; Call: active
FLYWCH1 (GeneID 84256) #3 | total luciferase, z-score: 0.556; Call: inactive
SPEM2 (GeneID 201243) #1 | total luciferase, z-score: -3.1; Call: inactive
SPEM2 (GeneID 201243) #2 | total luciferase, z-score: -0.521; Call: inactive
SPEM2 (GeneID 201243) #3 | total luciferase, z-score: -0.305; Call: inactive

The list goes on (2 carried over from the part before).
SPEM2 (GeneID 201243) #2 | total luciferase, z-score: -0.521; Call: inactive
SPEM2 (GeneID 201243) #3 | total luciferase, z-score: -0.305; Call: inactive
SLC7A14 (GeneID 57709) #1 | total luciferase, z-score: -0.282; Call: inactive
SLC7A14 (GeneID 57709) #2 | total luciferase, z-score: 1.01; Call: inactive
SLC7A14 (GeneID 57709) #3 | total luciferase, z-score: 0.234; Call: inactive
SLC7A14 (GeneID 57709) #4 | total luciferase, z-score: -0.799; Call: inactive
SLC7A14 (GeneID 57709) #5 | total luciferase, z-score: -0.715; Call: inactive
SLC7A14 (GeneID 57709) #6 | total luciferase, z-score: -0.0454; Call: inactive
